# Patent publication US20120178796A1, “SPLICE VARIANTS” (priority 2009, published 2012)
# Assay: Protein half-life by time course after cycloheximide inhibition of protein synthesis
# Format: cell-based, human
# Conditions: after cycloheximide (CHX); HCT116 cells
substance,measurement,value
SIRT1 FL: full length SIRT1 protein,protein half-life,> 9 h
